Laboratory results: PubChem BioAssay AID1318 (The Scripps Research Institute Molecular Screening Center, 2008)
Out of some 1,200 compounds screened, about 160 (13%) were called active.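 The calls were made as follows: active = activation above the solvent-only control well mean plus 3 SD, set per screening run (cut at about 120% in these data); inactive = the rest.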 The entries are a selection whose mix differs from that of the whole data set.

Test: STAT1 reporter activators, IFN-gamma induced, counter-screen for STAT3 activator project, cell-based, NIH 3T3, luciferase luminescence (AID 1318);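 also: 100% = IFN-gamma with DMSO median signal so 100% means no change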
Conditions: NIH 3T3 STAT1-luciferase reporter, at 5.7 µM, stronger effect = higher value
With `CCC/C(=N\O)c1c[nH]c2ccccc12` the activation (% of control) was inactive: 99.9%. With `COc1cc(-n2c(=S)[nH]c3ccc(C)cc3c2=O)c(Cl)cc1Cl` the activation (% of control) was inactive: 105%.
